Test results reported in PMC11705415.
No constants are given. Whether binding was seen depends on the method and setting. In cells and extracts the contact can be indirect. Some results given as binding are weak or reduced against the parent protein; the word gives no strength. Tags and fused reporters may be left off the sequences shown.

Chains of the proteins cited; added tags and fusions are not shown. Lines headed by an entry give the natural chain unless they say otherwise; changes in a name come on top. A line that says so, or that is headed by a name, gives the form on record, which may keep a tag or linker.
UniProt P62069: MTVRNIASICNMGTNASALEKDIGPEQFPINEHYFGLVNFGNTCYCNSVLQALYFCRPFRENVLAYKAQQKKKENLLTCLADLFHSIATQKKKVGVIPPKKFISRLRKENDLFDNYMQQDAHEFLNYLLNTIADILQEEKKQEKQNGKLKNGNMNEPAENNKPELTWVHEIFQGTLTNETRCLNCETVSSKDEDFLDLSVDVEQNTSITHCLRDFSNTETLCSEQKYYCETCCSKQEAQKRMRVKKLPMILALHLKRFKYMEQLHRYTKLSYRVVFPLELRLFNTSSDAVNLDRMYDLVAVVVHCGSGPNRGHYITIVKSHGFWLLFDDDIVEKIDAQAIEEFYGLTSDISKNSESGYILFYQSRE
HA-USP46-ΔK92 (P62069, form named): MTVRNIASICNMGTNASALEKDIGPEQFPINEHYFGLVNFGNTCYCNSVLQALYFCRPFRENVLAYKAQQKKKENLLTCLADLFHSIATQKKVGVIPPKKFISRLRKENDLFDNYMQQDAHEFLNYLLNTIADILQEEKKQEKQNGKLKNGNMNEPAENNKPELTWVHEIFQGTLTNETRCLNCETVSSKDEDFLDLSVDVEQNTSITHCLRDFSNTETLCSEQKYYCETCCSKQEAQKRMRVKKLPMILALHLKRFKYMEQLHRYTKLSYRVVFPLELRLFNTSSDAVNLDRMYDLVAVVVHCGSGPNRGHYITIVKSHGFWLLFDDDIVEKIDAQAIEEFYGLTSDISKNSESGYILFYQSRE

Columns and labels:
Assay in all cases: co-IP; Neuro2a cells co-transfected with HA-USP46 and VC-tagged protein; lysis in TNE buffer with 0.1% Triton X-100; precipitation of the VC-tagged protein with anti-GFP antibody and Protein G magnetic beads at 4 °C; HA-USP46 detected by western blotting
[1] = biological target: T1, VC-tagged AHI1 (UniProt Q8K3E5)
T1 sequence: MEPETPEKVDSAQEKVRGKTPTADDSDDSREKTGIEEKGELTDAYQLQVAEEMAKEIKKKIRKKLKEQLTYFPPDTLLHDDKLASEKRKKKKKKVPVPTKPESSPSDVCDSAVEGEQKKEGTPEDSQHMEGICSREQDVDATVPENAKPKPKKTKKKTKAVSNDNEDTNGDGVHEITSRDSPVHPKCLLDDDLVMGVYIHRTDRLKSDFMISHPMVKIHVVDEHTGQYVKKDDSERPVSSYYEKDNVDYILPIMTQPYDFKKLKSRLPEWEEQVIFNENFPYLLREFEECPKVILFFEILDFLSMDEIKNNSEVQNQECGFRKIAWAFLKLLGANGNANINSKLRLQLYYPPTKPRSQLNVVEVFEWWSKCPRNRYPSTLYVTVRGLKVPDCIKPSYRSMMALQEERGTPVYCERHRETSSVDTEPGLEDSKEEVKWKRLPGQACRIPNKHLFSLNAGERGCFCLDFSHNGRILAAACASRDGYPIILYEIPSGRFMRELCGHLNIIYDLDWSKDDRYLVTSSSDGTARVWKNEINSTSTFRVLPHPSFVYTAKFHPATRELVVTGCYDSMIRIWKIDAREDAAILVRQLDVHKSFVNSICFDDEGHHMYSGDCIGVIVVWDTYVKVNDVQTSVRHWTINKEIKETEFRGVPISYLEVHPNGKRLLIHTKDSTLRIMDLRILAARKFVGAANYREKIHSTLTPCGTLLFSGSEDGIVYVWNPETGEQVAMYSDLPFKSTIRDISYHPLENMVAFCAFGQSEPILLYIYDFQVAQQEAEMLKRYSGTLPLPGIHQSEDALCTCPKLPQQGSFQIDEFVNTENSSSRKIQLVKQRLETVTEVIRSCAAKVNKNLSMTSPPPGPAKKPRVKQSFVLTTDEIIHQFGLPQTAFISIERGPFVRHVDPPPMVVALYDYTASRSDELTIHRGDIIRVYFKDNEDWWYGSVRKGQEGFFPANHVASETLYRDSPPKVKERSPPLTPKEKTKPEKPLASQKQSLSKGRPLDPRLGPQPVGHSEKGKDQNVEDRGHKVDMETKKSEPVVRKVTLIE

[2] = biological target: T2, VC-tagged SIRT2 (UniProt Q8VDQ8)
T2 sequence: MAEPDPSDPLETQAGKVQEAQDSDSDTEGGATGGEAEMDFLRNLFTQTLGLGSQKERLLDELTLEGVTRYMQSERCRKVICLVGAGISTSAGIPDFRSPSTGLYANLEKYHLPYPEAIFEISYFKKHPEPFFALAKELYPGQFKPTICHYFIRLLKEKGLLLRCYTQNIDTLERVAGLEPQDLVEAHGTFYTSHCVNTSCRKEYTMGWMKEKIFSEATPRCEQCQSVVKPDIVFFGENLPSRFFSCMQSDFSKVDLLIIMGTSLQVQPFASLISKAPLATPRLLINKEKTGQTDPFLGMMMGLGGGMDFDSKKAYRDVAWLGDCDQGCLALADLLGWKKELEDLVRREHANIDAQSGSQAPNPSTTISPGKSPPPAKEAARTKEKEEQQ

[3] = biological target: T3, VC-tagged SNAP29 (UniProt Q9ERB0)
T3 sequence: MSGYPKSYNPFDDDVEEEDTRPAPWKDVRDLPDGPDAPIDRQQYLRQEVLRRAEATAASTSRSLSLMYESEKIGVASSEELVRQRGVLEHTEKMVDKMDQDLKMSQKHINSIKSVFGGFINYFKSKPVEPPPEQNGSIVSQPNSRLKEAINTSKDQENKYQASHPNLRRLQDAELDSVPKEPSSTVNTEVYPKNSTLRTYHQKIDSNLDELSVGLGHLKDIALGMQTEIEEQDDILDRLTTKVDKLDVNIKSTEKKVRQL

[4] = biological target: T4, VC-tagged TPGS1 (UniProt Q99MS8)
T4 sequence: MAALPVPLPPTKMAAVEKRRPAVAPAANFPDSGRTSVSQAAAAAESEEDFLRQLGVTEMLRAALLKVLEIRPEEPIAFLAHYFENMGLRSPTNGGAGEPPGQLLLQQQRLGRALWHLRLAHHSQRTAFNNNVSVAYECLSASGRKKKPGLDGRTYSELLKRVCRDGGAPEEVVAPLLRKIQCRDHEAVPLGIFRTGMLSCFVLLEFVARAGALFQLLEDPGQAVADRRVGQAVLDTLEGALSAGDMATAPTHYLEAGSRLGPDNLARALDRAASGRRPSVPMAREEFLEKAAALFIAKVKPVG

Measured: binding

HA-USP46-ΔK92 (from UniProt P62069 1-366) (enzyme)
binds: all assays above

HA-USP46-WT (from UniProt P62069 1-366) (enzyme)
binds: all assays above
